Drawing on doi:10.1101/2025.09.24.678334, this text covers binding for 2 substances.

Chains of the proteins cited; added tags and fusions are not shown. Lines headed by an entry give the natural chain unless they say otherwise; changes in a name come on top. A line that says so, or that is headed by a name, gives the form on record, which may keep a tag or linker.
S119A S120A cofilin (P23528, form named): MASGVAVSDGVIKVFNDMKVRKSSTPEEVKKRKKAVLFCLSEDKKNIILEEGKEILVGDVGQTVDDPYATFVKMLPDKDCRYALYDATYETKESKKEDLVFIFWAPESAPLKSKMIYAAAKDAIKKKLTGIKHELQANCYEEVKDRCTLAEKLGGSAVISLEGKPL

Results are given in words; binding and its absence hold for the method and conditions named. Some results given as binding are weak or reduced against the parent protein; the word gives no strength.

This test deals with Importin 9 (IPO9), GST tag cleaved (human) (UniProt Q96P70). Nature of the test: SPR; IPO9 (80 nM, about 6000 RU) coupled by EDC/NHS to a CM5 chip; concentration series of analyte (RanGTP 0-1 μM, cofilin 0-55 μM, profilin 0-60 μM); Biacore 8k; 1X HBS-EP+; both purified.

Take “S119A S120A cofilin (from UniProt P23528 1-166)”: the binding result is “binds weakly”.
The entry for “human cofilin-1, wild type (from UniProt P23528 1-166)” is “binds weakly”.
